Results as given in paper PMC3871008.
Where two headings read alike, the source gives them in different places. Results are given in words; binding and its absence hold for the method and conditions named. In cells and extracts the contact can be indirect. Some binding calls cover weakened binding; strength is not graded here. Each block holds one molecule with its values, some of them ahead of it.

Amino acid sequences for entries named in this document (tags omitted).
UniProt Q13950: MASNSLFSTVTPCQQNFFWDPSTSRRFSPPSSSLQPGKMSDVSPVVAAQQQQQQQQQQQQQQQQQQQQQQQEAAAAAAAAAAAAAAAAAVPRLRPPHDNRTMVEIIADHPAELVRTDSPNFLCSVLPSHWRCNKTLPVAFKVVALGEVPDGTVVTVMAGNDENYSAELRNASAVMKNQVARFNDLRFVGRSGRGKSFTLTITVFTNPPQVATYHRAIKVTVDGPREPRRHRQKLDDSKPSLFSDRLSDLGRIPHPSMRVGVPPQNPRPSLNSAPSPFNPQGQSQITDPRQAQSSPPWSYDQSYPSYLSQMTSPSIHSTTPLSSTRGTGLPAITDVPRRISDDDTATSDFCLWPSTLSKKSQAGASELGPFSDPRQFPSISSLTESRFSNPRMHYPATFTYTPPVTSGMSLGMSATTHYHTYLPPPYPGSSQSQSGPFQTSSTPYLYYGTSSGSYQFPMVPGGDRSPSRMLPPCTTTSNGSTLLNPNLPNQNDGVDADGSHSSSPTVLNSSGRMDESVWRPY
UniProt P84022: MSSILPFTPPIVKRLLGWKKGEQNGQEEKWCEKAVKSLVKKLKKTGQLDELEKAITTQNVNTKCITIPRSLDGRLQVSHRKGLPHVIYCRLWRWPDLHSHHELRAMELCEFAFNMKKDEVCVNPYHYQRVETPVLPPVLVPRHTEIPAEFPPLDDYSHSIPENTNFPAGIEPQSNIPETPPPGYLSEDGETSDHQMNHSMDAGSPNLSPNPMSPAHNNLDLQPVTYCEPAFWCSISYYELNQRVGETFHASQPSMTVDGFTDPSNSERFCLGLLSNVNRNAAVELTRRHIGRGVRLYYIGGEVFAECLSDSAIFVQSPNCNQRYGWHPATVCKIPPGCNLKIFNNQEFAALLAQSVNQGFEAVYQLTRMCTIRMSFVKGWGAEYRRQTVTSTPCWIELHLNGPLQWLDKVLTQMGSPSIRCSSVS

Experiments:
Experiment in all cases: co-IP; endogenous proteins from MCF10 whole cell lysates; immunoprecipitated with anti-WWOX, anti-SMAD3, anti-RUNX2 or rabbit IgG on Protein A/G beads; lysis and wash buffer with Tris-HCl pH 7.4, 100 mM NaF, 10 mM EDTA, 1% NP-40, 0.5% TritonX-100; blotted with anti-WWOX and anti-SMAD3
[1] = target: RUNX2, endogenous (human (endogenous in MCF10)) (UniProt Q13950)
[2] = target: T1, WW domain-containing oxidoreductase (WWOX), endogenous (human (endogenous in MCF10)) (UniProt Q9NZC7)
T1 sequence: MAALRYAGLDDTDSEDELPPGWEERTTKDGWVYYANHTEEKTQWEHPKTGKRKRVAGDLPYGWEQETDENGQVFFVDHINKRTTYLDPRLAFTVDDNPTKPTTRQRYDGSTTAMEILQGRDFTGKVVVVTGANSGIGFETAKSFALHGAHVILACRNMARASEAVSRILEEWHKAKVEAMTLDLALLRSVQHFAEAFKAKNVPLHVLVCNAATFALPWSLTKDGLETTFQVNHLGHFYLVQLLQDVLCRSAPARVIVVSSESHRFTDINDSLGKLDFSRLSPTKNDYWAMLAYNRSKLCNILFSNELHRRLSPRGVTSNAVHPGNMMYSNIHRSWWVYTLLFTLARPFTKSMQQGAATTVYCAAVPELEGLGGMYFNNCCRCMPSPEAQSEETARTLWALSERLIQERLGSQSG

[3] = target: RUNX2, endogenous (human (endogenous in MCF10)) (UniProt Q13950); remark: listed apart in the source

binding [1]: binds | binding [2]: binds
Molecule: SMAD3, endogenous (from UniProt P84022 1-425)

binding [3]: binds
B1: WW domain-containing oxidoreductase (WWOX), endogenous (protein, UniProt Q9NZC7 1-414)
chain: T1 sequence
